Measured values published in the supplement of paper PMC9578143, “Small-Molecule Ebselen Binds to YTHDF Proteins Interfering with the Recognition of N^6-Methyladenosine-Modified RNAs” (ACS Pharmacology & Translational Science, 2022).
The other results are listed elsewhere or left out. Plates or batches differ in their baseline, so values are only roughly comparable.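 Hits were defined as a z-score below −3.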 Starred links: 1 amine or outer side, 2 acyl side, 3 side chain; linkers in the order of their positions; H or OH if unused. Positions of bridges follow the written chain, without caps; N, C: chain ends. Non-standard residues stand in square brackets, D forms with d. Residues, ends and D or L forms follow the SMILES beside them. ξ: configuration not given here. *: point of attachment. X1 = N=C1NCCC([C@H](N[*:1])C(=O)[*:2])N1; ΔAla(Z-3-ureido) = NC(=O)N/C=C(\N)C(=O)O; ξβ3hOrn = NCCCC(N)CC(=O)*; Dap = NC[C@H](N)C(=O)O

molecular target: T1, YTHDF1 YTH domain (aa 365-554) (UniProt Q9BYJ9); assay: tryptophan fluorescence intensity z-score (mean); higher = higher fluorescence, less quenching (negative = binding / quenching); conditions: 10 µM
T1 sequence (whole entry): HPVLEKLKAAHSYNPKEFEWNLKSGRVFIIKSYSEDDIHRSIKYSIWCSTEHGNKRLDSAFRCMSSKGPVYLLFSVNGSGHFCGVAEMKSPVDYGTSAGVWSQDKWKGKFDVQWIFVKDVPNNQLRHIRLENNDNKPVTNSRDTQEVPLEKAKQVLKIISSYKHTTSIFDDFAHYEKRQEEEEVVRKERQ

Tryptophan fluorescence intensity z-score, inactive:
Cc1cc(C)nc(NS(=O)(=O)c2ccc(N)cc2)n1 (plate: M 5-6) -0.218, CC1(C)O[C@@H]2C[C@H]3[C@@H]4C[C@H](F)C5=CC(=O)C=C[C@]5(C)[C@@]4(F)[C@@H](O)C[C@]3(C)[C@]2(C(=O)CO)O1 (plate: M 3-4) -0.363, CC(C)=CCc1c2c(c3occ(-c4ccc(O)c(O)c4)c(=O)c3c1O)C=CC(C)(C)O2 (plate: M 15-16) 0.732, COc1cc(NS(=O)(=O)c2ccc(N)cc2)ncn1 (plate: M 7-8) 0.181, NCCC(=O)N[C@@H](Cc1c[nH]cn1)C(=O)O (plate: M 17-18) 0.613, CCCCCCNC(=O)n1cc(F)c(=O)[nH]c1=O (plate: M 23-24) 0.00195, C[C@@H]1NC(=O)[C@@H](N)CNC(=O)[C@H](C2CCNC(=N)N2)NC(=O)/C(=C/NC(N)=O)NC(=O)[C@H](CNC(=O)CC(N)CCCN)NC1=O.N=C1NCCC([C@@H]2NC(=O)/C(=C/NC(N)=O)NC(=O)[C@H](CNC(=O)CC(N)CCCN)NC(=O)[C@H](CO)NC(=O)[C@@H](N)CNC2=O)N1 (stereo partly drawn) (plate: M 1-2) (H-[Dap]S[Dap](ξβ3hOrn)[ΔAla(Z-3-ureido)][X1]; lactam 1-C) -0.0317, CC(C)=CCC1=C(O)C(=O)c2ccccc2C1=O (plate: M 17-18) 0.201, COc1ccc(Cl)cc1C(=O)NCCc1ccc(S(=O)(=O)NC(=O)NC2CCCCC2)cc1 (plate: M 13-14) 0.188, CO/N=C(\C(=O)N[C@@H]1C(=O)N2C(C(=O)OC(C)OC(C)=O)=C(COC(N)=O)CS[C@H]12)c1ccco1 (some centres not stated) (plate: M 9-10) -0.158, O=c1cc(-c2ccccc2)oc2cccc(O)c12 (plate: M 17-18) -0.133, COC(=O)Nc1nc2cc([S+]([O-])c3ccccc3)ccc2[nH]1 (configuration not stated) (plate: M 9-10) -0.183, C=CCCCCCCCCC(=O)[O-].C=CCCCCCCCCC(=O)[O-].[Zn+2] (plate: M 11-12) 0.504, COc1ccccc1OCC(O)COC(N)=O (configuration not stated) (plate: M 3-4) 0.183, Nc1c2c(nc3ccccc13)CCCC2O (configuration not stated) (plate: M 23-24) 0.452, COc1ccc2c(=O)c(CC(=O)O)coc2c1 (plate: M 15-16) 0.356, CNc1ccccc1C(=O)N1CCc2c([nH]c3ccccc23)C1=O (plate: M 19-20) 0.327, CCN[C@@H]1C[C@H](N)[C@@H](O[C@H]2OC(CN)=CC[C@H]2N)[C@H](O)[C@H]1O[C@H]1OC[C@](C)(O)[C@H](NC)[C@H]1O (plate: M 11-12) 0.517, FC(F)(F)COCC(F)(F)F (plate: M 13-14) 0.0808, COC1=C(OC)C(=O)C(C/C=C(\C)CC/C=C(\C)CC/C=C(\C)CC/C=C(/C)CC/C=C(\C)CC/C=C(\C)CC/C=C(\C)CC/C=C(\C)CC/C=C(\C)CCC=C(C)C)=C(C)C1=O (plate: M 19-20) 0.507, C=C(C)[C@@H]1CC=C(CO)CC1 (plate: M 19-20) 0.446, CC1(C)CC2C1CCC1(C)OC2(C)CCC1O (configuration not stated) (plate: M 21-22) 0.424, O=C(c1ccccc1)c1ccc2n1CCC2C(=O)O (configuration not stated) (plate: M 9-10) -0.518, CCOC(=O)[C@@](C)(N)Cc1ccc(O)c(O)c1 (plate: M 11-12) -0.488, COc1c(N2CCNC(C)C2)c(F)cc2c(=O)c(C(=O)O)cn(C3CC3)c12 (configuration not stated) (plate: M 9-10) -0.273, N[C@@H](C(=O)O)[C@@H](O)[C@H](O)[C@H](O)CO (plate: M 17-18) 0.6, OCc1ccccc1O (plate: M 5-6) -0.081, c1ccc(CN(CC2=NCCN2)c2ccccc2)cc1 (plate: M 1-2) 0.273, Cc1cc(O)c2c(O)c3c(O)cccc3cc2c1 (plate: M 21-22) 0.0771, C=CCSCC1Nc2cc(Cl)c(S(N)(=O)=O)cc2S(=O)(=O)N1 (configuration not stated) (plate: M 5-6) 0.0129, CC[C@@H](CO)NCCN[C@@H](CC)CO (plate: M 3-4) 0.141, CCCOc1ccc(C(=O)OCCN(CC)CC)cc1N (plate: M 11-12) -0.645, Nc1ccccc1C(=O)CC(N)C(=O)O (configuration not stated) (plate: M 17-18) 0.416, N=C(N)NCCN1CCCCCCC1 (plate: M 3-4) 0.225, CC(CN(C)C)CN1c2ccccc2Sc2ccccc21 (configuration not stated) (plate: M 5-6) -0.047, CC1(C)[C@@H](OC(=O)CCC(=O)O)CC[C@]2(C)[C@H]3C(=O)C=C4[C@@H]5C[C@@](C)(C(=O)O)CC[C@]5(C)CC[C@@]4(C)[C@]3(C)CC[C@@H]12 (plate: M 13-14) 0.696, COc1cc(O)ccc1C(C)=O (plate: M 17-18) 0.258, CC(=O)OCC(=O)[C@H]1CC[C@H]2[C@@H]3CCC4=CC(=O)CC[C@]4(C)[C@H]3CC[C@]12C (plate: M 1-2) 0.403, O=C(/C=C/c1ccc(O)c(O)c1)O[C@@H]1C[C@](O)(C(=O)O)C[C@@H](O)[C@H]1O (plate: M 15-16) 0.059, C=CCOC(Cn1ccnc1)c1ccc(Cl)cc1Cl (configuration not stated) (plate: M 13-14) 0.555, COc1ccc(-c2cc(=O)c3c(OC(C)=O)cc(OC(C)=O)cc3o2)cc1 (plate: M 21-22) 0.187, Cc1cc(-c2ccccc2)nnc1NCCN1CCOCC1 (plate: M 13-14) 0.98, NC(N)=Nc1nc(CSCC/C(N)=N/S(N)(=O)=O)cs1 (plate: M 7-8) 0.0393, CC1=C(/C=C/C(C)=C/C=C/C(C)=C\C(=O)O)C(C)(C)CCC1 (plate: M 13-14) 0.375, CC/C(=C(/CC)c1ccc(O)cc1)c1ccc(O)cc1 (plate: M 1-2) 1.38, CSc1ccc2c(c1)N(CCC1CCCCN1C)c1ccccc1S2 (configuration not stated) (plate: M 5-6) -0.508, CN(C)[C@@H]1C(O)=C(C(N)=O)C(=O)[C@@]2(O)C(O)=C3C(=O)c4c(O)cccc4[C@@](C)(O)[C@H]3[C@H](O)[C@@H]12 (plate: M 3-4) 0.0143, CC(=O)NCCc1ccc(O)c(-c2c(O)c(O)c3c(c2O)C(=O)c2c(cc(O)c(C(=O)O)c2C(=O)O)C3=O)c1 (plate: M 21-22) -0.32, COC1(C)CCC2OC2(C)CCC2C1CC2(C)C (configuration not stated) (plate: M 21-22) 0.261, CCCCC1(COC(=O)CCC(=O)O)C(=O)N(c2ccccc2)N(c2ccccc2)C1=O (plate: M 23-24) 0.51, COc1cc(NC(C)CCCN)c2ncccc2c1 (configuration not stated) (plate: M 5-6) -0.263, COC(=O)[C@@H]1OC(=O)[C@H]2O[C@@]23[C@@]1(C)CCC1[C@@]2(C)CCC(=O)C(C)(C)C2C[C@@H](OC(C)=O)[C@]13C (some centres not stated) (plate: M 15-16) 0.472, C[C@H]1[C@H](C)CC[C@]2(C(=O)O)CC[C@]3(C)C(=CC[C@@H]4[C@@]5(C)C[C@@H](O)[C@H](O)[C@@](C)(CO)[C@@H]5CC[C@]43C)[C@H]12 (plate: M 19-20) 0.2, CCN(CC)CCOC(=O)C(c1ccccc1)c1ccccc1 (plate: M 7-8) 0.178, CC(C)(C)CC(C)(C)c1ccc(O)c(Cc2ccc(Cl)cc2Cl)c1 (plate: M 21-22) 0.72, COc1cccc(OC)c1C(=O)N[C@@H]1C(=O)N2[C@@H]1SC(C)(C)[C@@H]2C(=O)O (plate: M 3-4) -0.0253, Cc1ccc(S(=O)(=O)NC(=O)NN2CCCCCC2)cc1 (plate: M 7-8) 0.237, CC(C)CCCC(C)C1CCC2C3=CCC4CC(O)CCC4(C)C3CCC21C (configuration not stated) (plate: M 17-18) 0.258, C[C@]12CC[C@@H]3c4ccc(OS(=O)(=O)O)cc4CC[C@H]3[C@@H]1CCC2=O (plate: M 9-10) 0.162, Cc1ccsc1/C=C/C1=NCCCN1C (plate: M 9-10) -0.54, CN(C)c1ccc(O)c2c1C[C@H]1C[C@H]3[C@H](N(C)C)C(O)=C(C(N)=O)C(=O)[C@@]3(O)C(O)=C1C2=O (plate: M 3-4) -0.515, CCOc1ccc2nc3cc(N)ccc3c(N)c2c1 (plate: M 23-24) 0.0327, CCN(CC)CCNc1ccc(CO)c2sc3ccccc3c(=O)c12 (plate: M 7-8) 0.0955, O=C(COc1ccc(Cl)cc1)N1CCN(Cc2ccc3c(c2)OCO3)CC1 (plate: M 23-24) 0.521, O=c1c(O)cc([C@H]2Oc3cc(O)cc(O)c3C[C@H]2O)cc2c([C@H]3Oc4cc(O)cc(O)c4C[C@H]3O)cc(O)c(O)c12 (plate: M 15-16) 0.247, COc1cc(OC)c2c(=O)c(-c3ccc4c(c3)OCO4)coc2c1 (plate: M 17-18) 0.356, COc1cc([C@@H]2c3cc4c(cc3[C@@H](O[C@@H]3O[C@@H]5CO[C@@H](c6cccs6)O[C@H]5[C@H](O)[C@H]3O)[C@H]3COC(=O)[C@H]23)OCO4)cc(OC)c1O (plate: M 9-10) 0.0712
